# Reference: the supplement of paper PMC10849652
# Amino acid sequences for entries named in this document (tags omitted). A change or cut given only in a name is not applied to a line headed by its entry.
# UniProt Q9H7B4: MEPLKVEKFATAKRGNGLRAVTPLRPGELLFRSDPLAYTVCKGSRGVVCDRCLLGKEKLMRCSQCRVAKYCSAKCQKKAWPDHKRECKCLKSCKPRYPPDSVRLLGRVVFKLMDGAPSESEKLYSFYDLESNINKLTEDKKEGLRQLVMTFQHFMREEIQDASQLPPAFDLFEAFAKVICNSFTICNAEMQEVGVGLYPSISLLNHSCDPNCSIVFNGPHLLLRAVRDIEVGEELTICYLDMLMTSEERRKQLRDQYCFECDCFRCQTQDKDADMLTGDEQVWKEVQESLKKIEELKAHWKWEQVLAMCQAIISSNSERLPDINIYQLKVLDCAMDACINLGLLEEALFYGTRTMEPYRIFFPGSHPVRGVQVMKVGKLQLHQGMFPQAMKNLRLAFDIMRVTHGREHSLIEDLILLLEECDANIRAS
# UniProt Q96KF7: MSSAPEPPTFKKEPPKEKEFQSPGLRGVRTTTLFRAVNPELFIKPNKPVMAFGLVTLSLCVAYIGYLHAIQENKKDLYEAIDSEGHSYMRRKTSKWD
# UniProt O60641: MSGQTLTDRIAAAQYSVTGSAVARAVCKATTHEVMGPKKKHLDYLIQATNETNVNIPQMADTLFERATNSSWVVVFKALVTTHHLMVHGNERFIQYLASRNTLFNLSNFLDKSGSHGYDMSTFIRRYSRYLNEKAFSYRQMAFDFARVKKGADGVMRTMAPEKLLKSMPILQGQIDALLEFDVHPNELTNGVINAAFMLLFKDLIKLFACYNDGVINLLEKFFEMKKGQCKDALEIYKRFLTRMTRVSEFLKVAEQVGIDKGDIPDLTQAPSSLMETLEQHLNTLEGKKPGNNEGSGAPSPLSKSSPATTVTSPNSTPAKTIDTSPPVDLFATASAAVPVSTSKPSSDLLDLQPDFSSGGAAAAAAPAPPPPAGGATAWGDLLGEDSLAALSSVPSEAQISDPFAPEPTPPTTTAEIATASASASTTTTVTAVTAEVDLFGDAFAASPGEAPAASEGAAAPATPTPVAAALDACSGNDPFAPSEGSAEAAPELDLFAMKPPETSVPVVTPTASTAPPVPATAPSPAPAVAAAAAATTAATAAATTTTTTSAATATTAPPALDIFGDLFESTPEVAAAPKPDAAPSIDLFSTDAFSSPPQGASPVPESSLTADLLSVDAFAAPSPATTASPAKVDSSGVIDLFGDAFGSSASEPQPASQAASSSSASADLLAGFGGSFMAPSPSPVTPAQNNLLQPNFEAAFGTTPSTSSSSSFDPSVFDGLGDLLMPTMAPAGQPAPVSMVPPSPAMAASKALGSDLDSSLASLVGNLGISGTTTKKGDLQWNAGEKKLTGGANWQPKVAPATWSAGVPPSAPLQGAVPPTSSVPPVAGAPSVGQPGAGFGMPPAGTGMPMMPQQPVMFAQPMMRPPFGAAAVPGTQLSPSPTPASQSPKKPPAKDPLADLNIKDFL
# UniProt Q96BD0: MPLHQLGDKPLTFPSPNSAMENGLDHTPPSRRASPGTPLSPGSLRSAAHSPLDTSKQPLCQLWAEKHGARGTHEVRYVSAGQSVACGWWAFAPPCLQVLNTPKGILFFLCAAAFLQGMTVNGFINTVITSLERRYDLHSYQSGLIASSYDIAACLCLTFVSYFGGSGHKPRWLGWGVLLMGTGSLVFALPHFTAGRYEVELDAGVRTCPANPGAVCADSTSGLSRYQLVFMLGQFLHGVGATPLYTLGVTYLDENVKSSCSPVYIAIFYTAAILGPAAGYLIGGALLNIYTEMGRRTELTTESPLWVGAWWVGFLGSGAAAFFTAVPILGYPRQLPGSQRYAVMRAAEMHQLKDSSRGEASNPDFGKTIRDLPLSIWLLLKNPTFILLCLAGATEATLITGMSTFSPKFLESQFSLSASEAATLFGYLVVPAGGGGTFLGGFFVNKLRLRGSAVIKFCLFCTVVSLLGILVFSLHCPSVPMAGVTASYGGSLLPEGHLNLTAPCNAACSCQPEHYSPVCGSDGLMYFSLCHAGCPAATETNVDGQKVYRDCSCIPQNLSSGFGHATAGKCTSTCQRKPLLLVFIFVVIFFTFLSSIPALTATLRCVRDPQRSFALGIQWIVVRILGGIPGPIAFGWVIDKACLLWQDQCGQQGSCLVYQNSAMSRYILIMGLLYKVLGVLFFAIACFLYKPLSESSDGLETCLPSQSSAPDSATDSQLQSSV
# UniProt P51532, whole entry, looked up: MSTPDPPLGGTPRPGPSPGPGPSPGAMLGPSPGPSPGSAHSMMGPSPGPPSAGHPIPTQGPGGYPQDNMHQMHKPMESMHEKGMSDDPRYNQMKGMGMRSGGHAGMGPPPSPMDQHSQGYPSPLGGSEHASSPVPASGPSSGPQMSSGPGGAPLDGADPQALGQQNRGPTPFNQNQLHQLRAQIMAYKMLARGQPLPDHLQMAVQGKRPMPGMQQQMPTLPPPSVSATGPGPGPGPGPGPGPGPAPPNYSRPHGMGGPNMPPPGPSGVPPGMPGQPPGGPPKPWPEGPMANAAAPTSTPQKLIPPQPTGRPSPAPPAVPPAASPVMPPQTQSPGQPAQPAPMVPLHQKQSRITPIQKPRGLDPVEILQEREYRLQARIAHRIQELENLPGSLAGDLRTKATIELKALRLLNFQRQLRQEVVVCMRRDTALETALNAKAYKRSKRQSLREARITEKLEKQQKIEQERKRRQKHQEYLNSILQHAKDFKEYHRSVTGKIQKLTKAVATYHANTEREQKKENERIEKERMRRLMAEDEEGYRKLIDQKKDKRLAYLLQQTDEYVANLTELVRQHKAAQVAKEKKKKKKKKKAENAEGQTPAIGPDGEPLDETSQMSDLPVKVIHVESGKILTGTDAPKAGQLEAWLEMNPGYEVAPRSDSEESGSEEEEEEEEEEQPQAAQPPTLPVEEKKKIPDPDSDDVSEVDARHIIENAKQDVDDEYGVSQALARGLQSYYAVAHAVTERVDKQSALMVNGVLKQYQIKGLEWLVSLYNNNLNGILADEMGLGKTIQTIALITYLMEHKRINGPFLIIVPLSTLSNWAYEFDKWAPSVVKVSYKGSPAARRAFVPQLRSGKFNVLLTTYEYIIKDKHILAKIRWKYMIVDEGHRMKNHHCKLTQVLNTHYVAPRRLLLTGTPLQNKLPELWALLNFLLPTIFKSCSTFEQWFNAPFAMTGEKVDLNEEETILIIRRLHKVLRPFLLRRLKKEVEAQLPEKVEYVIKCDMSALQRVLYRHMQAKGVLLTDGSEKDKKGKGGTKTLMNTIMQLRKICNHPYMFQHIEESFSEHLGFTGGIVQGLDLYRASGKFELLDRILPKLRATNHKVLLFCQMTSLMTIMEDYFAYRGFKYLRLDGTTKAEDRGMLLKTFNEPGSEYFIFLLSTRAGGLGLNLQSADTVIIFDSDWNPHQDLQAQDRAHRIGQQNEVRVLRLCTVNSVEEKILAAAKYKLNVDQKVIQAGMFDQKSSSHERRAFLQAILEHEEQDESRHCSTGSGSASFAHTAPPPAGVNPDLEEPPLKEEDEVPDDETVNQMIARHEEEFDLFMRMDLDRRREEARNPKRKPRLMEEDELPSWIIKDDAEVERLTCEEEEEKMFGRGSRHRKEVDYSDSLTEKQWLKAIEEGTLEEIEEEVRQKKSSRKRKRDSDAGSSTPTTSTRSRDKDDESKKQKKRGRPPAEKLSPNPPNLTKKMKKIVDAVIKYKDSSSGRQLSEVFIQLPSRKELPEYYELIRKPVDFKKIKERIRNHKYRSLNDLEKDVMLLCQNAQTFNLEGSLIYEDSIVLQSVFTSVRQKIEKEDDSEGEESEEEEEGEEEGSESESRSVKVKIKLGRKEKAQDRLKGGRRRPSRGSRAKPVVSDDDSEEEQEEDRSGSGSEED
# UniProt Q9Y5X1: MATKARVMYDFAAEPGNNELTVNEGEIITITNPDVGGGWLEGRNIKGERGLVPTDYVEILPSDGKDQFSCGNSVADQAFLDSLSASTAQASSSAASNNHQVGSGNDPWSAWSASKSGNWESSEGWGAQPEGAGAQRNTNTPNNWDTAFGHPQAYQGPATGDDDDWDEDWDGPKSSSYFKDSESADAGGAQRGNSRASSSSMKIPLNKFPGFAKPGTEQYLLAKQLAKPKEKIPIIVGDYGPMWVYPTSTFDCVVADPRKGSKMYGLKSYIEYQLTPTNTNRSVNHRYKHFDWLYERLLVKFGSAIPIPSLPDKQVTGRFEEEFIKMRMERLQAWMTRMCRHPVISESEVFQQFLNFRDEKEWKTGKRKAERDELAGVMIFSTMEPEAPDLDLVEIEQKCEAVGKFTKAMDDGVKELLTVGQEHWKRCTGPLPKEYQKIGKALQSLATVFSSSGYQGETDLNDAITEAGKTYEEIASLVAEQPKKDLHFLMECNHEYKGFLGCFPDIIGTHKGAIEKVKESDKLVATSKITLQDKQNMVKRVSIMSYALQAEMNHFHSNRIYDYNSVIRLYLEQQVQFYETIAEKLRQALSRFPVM
# UniProt Q9Y5X3: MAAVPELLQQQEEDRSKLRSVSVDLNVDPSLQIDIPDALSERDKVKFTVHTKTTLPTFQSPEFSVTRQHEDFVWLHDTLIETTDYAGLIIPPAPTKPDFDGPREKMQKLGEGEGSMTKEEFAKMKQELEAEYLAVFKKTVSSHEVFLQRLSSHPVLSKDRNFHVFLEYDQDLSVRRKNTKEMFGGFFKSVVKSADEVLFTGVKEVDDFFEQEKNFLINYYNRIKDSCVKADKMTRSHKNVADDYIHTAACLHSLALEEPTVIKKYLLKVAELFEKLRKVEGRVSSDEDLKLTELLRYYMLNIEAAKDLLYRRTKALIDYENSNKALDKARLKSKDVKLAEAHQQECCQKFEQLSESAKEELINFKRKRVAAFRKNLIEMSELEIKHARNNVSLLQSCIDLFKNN
# UniProt Q15036: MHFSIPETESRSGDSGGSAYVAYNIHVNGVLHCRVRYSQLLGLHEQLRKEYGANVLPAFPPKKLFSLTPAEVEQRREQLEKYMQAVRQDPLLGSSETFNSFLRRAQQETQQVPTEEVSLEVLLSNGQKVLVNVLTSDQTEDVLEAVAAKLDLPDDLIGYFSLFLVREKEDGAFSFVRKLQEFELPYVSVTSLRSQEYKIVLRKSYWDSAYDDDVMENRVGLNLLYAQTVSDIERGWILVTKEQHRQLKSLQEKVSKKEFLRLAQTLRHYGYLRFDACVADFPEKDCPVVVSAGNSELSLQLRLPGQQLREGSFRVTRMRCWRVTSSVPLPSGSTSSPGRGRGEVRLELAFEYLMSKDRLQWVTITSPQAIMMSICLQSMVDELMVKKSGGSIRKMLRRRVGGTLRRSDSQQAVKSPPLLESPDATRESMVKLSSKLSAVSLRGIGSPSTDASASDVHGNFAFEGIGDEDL
# UniProt Q99523, whole entry, looked up: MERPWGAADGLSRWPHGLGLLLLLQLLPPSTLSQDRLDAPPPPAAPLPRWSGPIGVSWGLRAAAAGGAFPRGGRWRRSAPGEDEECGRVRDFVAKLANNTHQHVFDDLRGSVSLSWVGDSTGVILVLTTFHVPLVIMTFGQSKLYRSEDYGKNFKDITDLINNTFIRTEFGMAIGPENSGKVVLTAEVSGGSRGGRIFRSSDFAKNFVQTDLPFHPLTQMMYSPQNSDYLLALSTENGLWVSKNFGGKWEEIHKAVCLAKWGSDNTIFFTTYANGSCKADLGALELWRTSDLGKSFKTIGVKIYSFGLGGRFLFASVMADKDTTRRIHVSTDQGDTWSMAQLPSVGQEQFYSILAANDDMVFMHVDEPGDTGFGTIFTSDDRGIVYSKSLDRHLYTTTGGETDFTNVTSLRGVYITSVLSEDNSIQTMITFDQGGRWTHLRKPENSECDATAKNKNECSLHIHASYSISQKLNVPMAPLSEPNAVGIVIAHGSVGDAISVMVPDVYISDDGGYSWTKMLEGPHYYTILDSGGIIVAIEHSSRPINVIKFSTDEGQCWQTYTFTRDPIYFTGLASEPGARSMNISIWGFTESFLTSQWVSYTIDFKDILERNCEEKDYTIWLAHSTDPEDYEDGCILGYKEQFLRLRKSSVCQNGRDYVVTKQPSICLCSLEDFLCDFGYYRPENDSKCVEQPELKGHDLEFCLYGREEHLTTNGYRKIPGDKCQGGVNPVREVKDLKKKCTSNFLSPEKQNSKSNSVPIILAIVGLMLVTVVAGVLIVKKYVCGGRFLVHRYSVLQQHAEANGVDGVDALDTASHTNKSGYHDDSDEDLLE
# UniProt P00441, whole entry, looked up: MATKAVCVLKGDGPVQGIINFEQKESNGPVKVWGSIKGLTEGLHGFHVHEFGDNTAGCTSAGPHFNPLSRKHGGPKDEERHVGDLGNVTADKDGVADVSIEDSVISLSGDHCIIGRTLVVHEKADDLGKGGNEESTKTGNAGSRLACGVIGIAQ
# UniProt O75391: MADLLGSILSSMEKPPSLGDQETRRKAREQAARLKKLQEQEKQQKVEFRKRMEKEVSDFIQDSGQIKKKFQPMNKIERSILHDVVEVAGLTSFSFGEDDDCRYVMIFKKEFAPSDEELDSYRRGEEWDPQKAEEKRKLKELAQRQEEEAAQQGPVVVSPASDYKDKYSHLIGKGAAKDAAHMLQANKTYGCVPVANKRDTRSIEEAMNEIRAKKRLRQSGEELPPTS
# UniProt P62304, whole entry, looked up: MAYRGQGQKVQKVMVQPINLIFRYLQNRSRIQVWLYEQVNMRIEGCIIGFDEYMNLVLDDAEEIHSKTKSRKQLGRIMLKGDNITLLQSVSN
# The list shows a part of the results.
# What was measured:
# Assay in all cases: log2 fold change, soluble protein after heating vs DMSO (PISA); higher = thermal stabilisation; K562 cells, 10 uM, 30 min; active = over 0.2 and 3.5 SD of the protein, either way, in both replicates (recomputed)
# erlotinib = compound: C#Cc1cccc(Nc2ncnc3cc(OCCOC)c(OCCOC)cc23)c1 [erlotinib]
# Summary of the method: (§1)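 K562 cells (2×10^6 cells/mL) were treated with 10 μM compound for 30 min, and aliquots were heated for 3 min over 48°C-58°C. Pooled aliquots were extracted in PBS with 0.5% NP-40 at 4°C, and the supernatant after 21,000xg for 90 min was measured by TMTpro 16plex LC-MS/MS with channel sums equalised. Reported thermal stability, relative to control samples and from duplicates, is a log2 fold change.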
# [1] = compound: C/C(=N\NC(=O)C1=CC(=CC=C1)S(=O)(=O)N2CCOCC2)/C3=C(C=CC(=C3)Cl)O
# Summary of the method: as §1
# [2] = compound: C1=CC(=C(C=C1Cl)C2=NC3=NC=CN=C3C(=N2)NC4=CC=NC=C4)F
# Summary of the method: as §1
# [3] = compound: C1=CC(=CC=C1C2=NC3=C(N2)C=C(C=C3)C(=O)N)OC4=CC=C(C=C4)Cl
# Summary of the method: as §1
# [4] = compound: C1=CC2=C(C=CC(=C2)/C=C\3/C(=O)NC(=NCC4=CC=CS4)S3)N=C1
# Summary of the method: as §1
# [5] = compound: C1=CC2=NC=CN=C2C=C1/C=C/3\C(=O)NC(=O)S3
# Summary of the method: as §1
# [6] = compound: C1=CC=C(C=C1)C2=NC(=C(N2)C3=CC=NC=C3)C4=CC(=C(C=C4)Cl)O
# Summary of the method: as §1
# [7] = compound: C1=CC=C2C(=C1)C3=NNC4=CC=CC(=C43)C2=O
# Summary of the method: as §1
# [8] = compound: C1CCN(C1)C(=O)NC2=CC=CC(=C2)NC3=NC=C(C(=N3)NCCC4=CN=CN4)Br
# Summary of the method: as §1
# [9] = compound: C1CN(CCC1(CC2=CC=C(C=C2)Cl)N)C3=NC=NC4=C3C=CN4
# Summary of the method: as §1
Target,log2 fold change (erlotinib),log2 fold change [1],log2 fold change [2],log2 fold change [3],log2 fold change [4],log2 fold change [5],log2 fold change [6],log2 fold change [7],log2 fold change [8],log2 fold change [9]
SMYD3 (UniProt Q9H7B4),inactive: 0.056,inactive: 0.253,inactive: -0.099,inactive: 0.006,inactive: 0.094,inactive: 0.11,inactive: -0.053,inactive: 0.077,inactive: -0.217,inactive: -0.186
SMIM8 (UniProt Q96KF7),inactive: 0,inactive: 0.062,inactive: -0.156,inactive: -0.019,inactive: 0.047,inactive: 0.005,inactive: -0.036,inactive: -0.036,inactive: 0.015,inactive: 0.01
SMN1 (UniProt Q16637),inactive: -0.013,inactive: 0.015,inactive: -0.229,inactive: 0,inactive: -0.273,inactive: 0.004,inactive: 0.013,inactive: -0.199,inactive: -0.018,inactive: -0.067
SOS1 (UniProt Q07889),inactive: -0.015,inactive: 0.072,inactive: -0.075,inactive: -0.027,inactive: 0.047,inactive: -0.107,inactive: 0.009,inactive: 0.022,inactive: 0.041,inactive: -0.006
SNAP91 (UniProt O60641),inactive: 0.047,inactive: -0.003,inactive: 0.083,inactive: -0.022,inactive: 0.01,inactive: -0.023,inactive: 0.032,inactive: 0.019,inactive: 0.008,inactive: 0.031
SMIM20 isoform 2 (UniProt Q8N5G0),inactive: -0.039,inactive: -0.111,active: 0.427,inactive: 0.054,inactive: -0.088,inactive: 0.088,inactive: 0.023,inactive: -0.051,inactive: -0.016,inactive: -0.06
SNX2 (UniProt O60749),inactive: 0.043,inactive: 0.075,inactive: 0.002,inactive: 0.041,inactive: 0.067,inactive: -0.059,inactive: -0.057,inactive: -0.049,inactive: 0.006,inactive: -0.013
SLMAP (UniProt Q14BN4),inactive: 0.034,inactive: 0.029,inactive: -0.062,inactive: 0.015,inactive: 0.046,inactive: -0.046,inactive: -0.04,inactive: -0.029,inactive: 0.002,inactive: -0.04
SLCO4A1 (UniProt Q96BD0),inactive: 0.037,inactive: -0.011,inactive: -0.09,inactive: -0.091,inactive: -0.007,inactive: 0.049,inactive: -0.027,inactive: 0.005,inactive: -0.17,inactive: 0.098
SMARCA4 (UniProt P51532),inactive: 0.02,inactive: 0.073,inactive: 0.032,inactive: 0.102,inactive: 0.035,inactive: -0.001,inactive: -0.096,inactive: -0.124,,
SPAG5 (UniProt Q96R06),inactive: 0.095,inactive: -0.17,inactive: -0.183,inactive: 0,inactive: 0.178,inactive: 0.076,inactive: -0.144,inactive: -0.079,inactive: -0.06,inactive: -0.134
SMC2 (UniProt O95347),inactive: 0.018,inactive: 0.05,inactive: 0.007,inactive: -0.024,inactive: -0.002,inactive: 0.022,inactive: 0.019,inactive: 0.033,inactive: 0.002,inactive: -0.066
SNCA (UniProt P37840),inactive: 0.009,inactive: 0.024,inactive: 0.023,inactive: 0.007,inactive: 0.027,inactive: 0.019,inactive: 0.025,inactive: -0.014,inactive: -0.01,inactive: 0.086
SMARCC2 (UniProt Q8TAQ2),inactive: 0.112,inactive: 0.142,inactive: 0.086,inactive: -0.069,inactive: 0.027,inactive: 0.074,inactive: 0.069,inactive: -0.019,inactive: -0.09,inactive: -0.259
SNRPC (UniProt Q5TAL2),inactive: 0.108,inactive: -0.47,inactive: 0.127,inactive: -0.25,inactive: 0.028,inactive: 0.027,inactive: 0.093,inactive: 0.148,inactive: -0.041,inactive: 0.123
SMARCA1 (UniProt P28370),inactive: 0.028,inactive: 0.037,inactive: -0.015,inactive: -0.094,inactive: 0.141,inactive: 0.021,inactive: -0.08,inactive: -0.018,inactive: 0.111,inactive: 0.006
SNX9 (UniProt Q9Y5X1),inactive: -0.005,inactive: 0.047,inactive: -0.004,inactive: -0.024,inactive: 0.004,inactive: 0.014,inactive: -0.006,inactive: -0.011,inactive: -0.01,inactive: 0.028
SNX5 (UniProt Q9Y5X3),inactive: 0.033,inactive: 0.09,inactive: 0.042,inactive: 0.022,inactive: 0.057,inactive: -0.024,inactive: -0.05,inactive: -0.038,inactive: 0.077,inactive: -0.009
SNX17 (UniProt Q15036),inactive: 0.051,inactive: 0.115,inactive: -0.082,inactive: -0.169,inactive: 0.052,inactive: -0.142,inactive: 0.031,inactive: 0.022,inactive: -0.161,inactive: -0.047
SMAD4 (UniProt Q13485),inactive: -0.017,inactive: 0.032,inactive: 0.041,inactive: 0,inactive: 0.023,inactive: 0.064,inactive: 0.022,inactive: -0.104,inactive: -0.044,inactive: 0.058
SORT1 (UniProt Q99523),inactive: 0.005,inactive: -0.024,inactive: 0.03,inactive: -0.012,inactive: 0.014,inactive: 0.034,inactive: 0.022,inactive: -0.018,inactive: -0.012,inactive: 0.06
SOD1 (UniProt P00441),inactive: -0.054,inactive: -0.024,inactive: -0.044,inactive: 0.04,inactive: 0.063,inactive: 0.025,inactive: -0.083,inactive: -0.054,inactive: 0.036,inactive: -0.021
SNX12 isoform 1 (UniProt Q9UMY4),inactive: 0.002,inactive: 0,inactive: 0.052,inactive: -0.019,inactive: 0.065,inactive: -0.01,inactive: 0.039,inactive: -0.064,inactive: 0.048,inactive: -0.034
SLIRP (UniProt Q9GZT3),inactive: 0.019,inactive: 0.205,inactive: 0.27,inactive: -0.014,inactive: 0.067,inactive: 0.093,inactive: 0.023,inactive: -0.187,inactive: -0.013,inactive: -0.028
SNRPD1 (UniProt P62314),inactive: -0.036,inactive: -0.085,inactive: -0.099,inactive: 0.018,inactive: -0.005,inactive: 0.039,inactive: -0.124,inactive: -0.005,inactive: 0.095,inactive: -0.042
SPAG7 (UniProt O75391),inactive: 0.012,inactive: 0.002,inactive: 0.049,inactive: -0.007,inactive: -0.078,inactive: 0.059,inactive: -0.055,inactive: 0.048,inactive: 0.006,inactive: 0.031
SMAD9 (UniProt O15198),inactive: -0.001,inactive: 0.086,inactive: 0.101,inactive: -0.055,inactive: 0,inactive: -0.012,inactive: -0.111,inactive: -0.098,inactive: 0.113,inactive: -0.076
SMCHD1 (UniProt A6NHR9),inactive: 0.006,inactive: 0.171,inactive: -0.272,inactive: 0.043,inactive: 0.325,inactive: 0.046,inactive: -0.007,inactive: -0.422,inactive: -0.153,active: -0.564
SMYD5 (UniProt Q6GMV2),inactive: 0,inactive: 0.026,inactive: 0.073,inactive: 0.019,inactive: 0.027,inactive: 0.022,inactive: -0.038,inactive: 0.015,inactive: 0.008,inactive: 0.01
SNRPE (UniProt P62304),inactive: -0.045,inactive: -0.096,inactive: -0.05,inactive: -0.001,inactive: -0.012,inactive: 0.048,inactive: -0.036,inactive: 0.005,inactive: 0.023,inactive: 0

# Some entries already given with just log2 fold change [9].
Target	log2 fold change [9]
SNRPD1 (UniProt P62314)	inactive: -0.042
SPAG7 (UniProt O75391)	inactive: 0.031

# Another view of part of the listing above.
Target	log2 fold change (erlotinib)	log2 fold change [1]	log2 fold change [2]	log2 fold change [3]	log2 fold change [4]	log2 fold change [5]	log2 fold change [6]	log2 fold change [7]	log2 fold change [8]	log2 fold change [9]
SMARCA4 (UniProt P51532)	inactive: 0.02	inactive: 0.073	inactive: 0.032	inactive: 0.102	inactive: 0.035	inactive: -0.001	inactive: -0.096	inactive: -0.124		
SNX12 isoform 1 (UniProt Q9UMY4)	inactive: 0.002	inactive: 0	inactive: 0.052	inactive: -0.019	inactive: 0.065	inactive: -0.01	inactive: 0.039	inactive: -0.064	inactive: 0.048	inactive: -0.034
